The values that follow come from the supplement of paper PMC10849652.

Amino acid sequences for entries named in this document (tags omitted). A change or cut given only in a name is not applied to a line headed by its entry.
UniProt Q8IX19: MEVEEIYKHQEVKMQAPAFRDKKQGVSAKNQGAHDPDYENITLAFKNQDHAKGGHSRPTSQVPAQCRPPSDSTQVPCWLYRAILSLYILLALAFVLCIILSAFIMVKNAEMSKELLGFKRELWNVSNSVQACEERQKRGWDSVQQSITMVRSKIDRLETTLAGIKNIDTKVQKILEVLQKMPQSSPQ
UniProt O00255, whole entry, looked up: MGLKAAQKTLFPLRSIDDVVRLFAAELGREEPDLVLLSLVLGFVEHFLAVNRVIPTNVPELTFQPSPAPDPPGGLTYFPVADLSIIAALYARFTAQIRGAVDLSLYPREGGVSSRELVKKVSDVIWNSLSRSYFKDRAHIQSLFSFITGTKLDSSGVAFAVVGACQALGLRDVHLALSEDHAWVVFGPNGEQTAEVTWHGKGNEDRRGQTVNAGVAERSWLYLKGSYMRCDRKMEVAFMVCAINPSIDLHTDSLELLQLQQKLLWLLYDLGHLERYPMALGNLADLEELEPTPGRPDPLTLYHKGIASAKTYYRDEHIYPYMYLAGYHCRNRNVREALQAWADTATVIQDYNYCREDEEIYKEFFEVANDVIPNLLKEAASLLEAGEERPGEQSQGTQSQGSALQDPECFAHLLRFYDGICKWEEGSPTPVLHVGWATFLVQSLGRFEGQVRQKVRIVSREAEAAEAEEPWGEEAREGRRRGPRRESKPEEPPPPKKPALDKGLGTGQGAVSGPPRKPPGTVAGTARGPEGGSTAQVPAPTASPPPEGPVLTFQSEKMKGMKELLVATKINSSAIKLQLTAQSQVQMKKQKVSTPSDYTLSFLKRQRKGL
UniProt A4D2B0: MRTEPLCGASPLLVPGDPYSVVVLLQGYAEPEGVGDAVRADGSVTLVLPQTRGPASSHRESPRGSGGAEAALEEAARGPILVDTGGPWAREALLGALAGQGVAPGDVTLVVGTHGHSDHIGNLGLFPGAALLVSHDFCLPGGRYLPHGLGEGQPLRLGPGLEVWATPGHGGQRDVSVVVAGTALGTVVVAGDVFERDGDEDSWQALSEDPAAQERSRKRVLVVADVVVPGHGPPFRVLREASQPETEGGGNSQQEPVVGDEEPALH
UniProt Q6NUT3: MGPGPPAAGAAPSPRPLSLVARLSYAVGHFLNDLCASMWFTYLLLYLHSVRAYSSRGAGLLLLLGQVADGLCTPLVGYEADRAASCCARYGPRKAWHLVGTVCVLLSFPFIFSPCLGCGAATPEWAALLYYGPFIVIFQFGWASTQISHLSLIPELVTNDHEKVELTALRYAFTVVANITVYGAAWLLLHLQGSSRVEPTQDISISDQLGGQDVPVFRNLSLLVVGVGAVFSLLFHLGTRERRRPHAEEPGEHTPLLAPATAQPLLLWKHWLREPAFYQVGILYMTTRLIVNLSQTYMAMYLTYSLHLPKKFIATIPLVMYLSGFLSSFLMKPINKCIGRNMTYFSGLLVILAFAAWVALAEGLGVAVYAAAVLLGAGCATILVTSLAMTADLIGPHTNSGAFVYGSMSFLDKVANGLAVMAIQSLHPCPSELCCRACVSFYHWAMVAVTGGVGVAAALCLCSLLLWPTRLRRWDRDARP
UniProt Q6P1Q9: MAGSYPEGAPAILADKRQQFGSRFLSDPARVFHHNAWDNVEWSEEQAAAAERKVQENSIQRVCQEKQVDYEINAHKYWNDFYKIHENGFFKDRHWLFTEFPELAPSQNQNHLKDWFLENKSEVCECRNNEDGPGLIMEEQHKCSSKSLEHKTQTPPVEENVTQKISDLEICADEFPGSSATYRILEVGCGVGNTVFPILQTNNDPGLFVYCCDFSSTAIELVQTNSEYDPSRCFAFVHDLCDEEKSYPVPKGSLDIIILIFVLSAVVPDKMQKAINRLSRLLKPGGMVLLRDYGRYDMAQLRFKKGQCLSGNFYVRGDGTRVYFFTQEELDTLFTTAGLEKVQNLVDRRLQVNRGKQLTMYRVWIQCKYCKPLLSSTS
UniProt Q8NI22: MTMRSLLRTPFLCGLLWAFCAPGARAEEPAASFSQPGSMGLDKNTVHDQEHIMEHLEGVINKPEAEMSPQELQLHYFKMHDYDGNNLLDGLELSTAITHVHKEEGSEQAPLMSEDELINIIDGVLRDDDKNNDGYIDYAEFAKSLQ
UniProt P42679: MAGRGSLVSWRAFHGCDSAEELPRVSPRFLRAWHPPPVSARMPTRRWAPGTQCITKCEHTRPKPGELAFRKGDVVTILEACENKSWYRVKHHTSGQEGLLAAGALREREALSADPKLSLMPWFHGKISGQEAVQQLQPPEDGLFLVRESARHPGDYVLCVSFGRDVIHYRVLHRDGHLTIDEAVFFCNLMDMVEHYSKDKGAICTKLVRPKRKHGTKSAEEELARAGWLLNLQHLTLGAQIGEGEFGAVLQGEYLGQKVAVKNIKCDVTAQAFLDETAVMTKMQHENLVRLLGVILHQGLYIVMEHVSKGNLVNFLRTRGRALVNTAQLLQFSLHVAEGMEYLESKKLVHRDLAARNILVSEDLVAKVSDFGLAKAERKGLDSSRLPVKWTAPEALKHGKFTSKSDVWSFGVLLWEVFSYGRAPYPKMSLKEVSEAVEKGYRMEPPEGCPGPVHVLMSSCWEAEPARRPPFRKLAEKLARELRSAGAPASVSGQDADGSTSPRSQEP
MCTS2P, A0A3B3IRV3, UniProt A0A3B3IRV3, whole entry, looked up: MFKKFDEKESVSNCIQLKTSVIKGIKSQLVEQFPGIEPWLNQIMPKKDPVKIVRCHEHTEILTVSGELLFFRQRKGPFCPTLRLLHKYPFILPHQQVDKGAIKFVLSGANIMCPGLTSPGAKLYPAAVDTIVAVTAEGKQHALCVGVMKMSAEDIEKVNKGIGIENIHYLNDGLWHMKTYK
UniProt Q8N6Q8: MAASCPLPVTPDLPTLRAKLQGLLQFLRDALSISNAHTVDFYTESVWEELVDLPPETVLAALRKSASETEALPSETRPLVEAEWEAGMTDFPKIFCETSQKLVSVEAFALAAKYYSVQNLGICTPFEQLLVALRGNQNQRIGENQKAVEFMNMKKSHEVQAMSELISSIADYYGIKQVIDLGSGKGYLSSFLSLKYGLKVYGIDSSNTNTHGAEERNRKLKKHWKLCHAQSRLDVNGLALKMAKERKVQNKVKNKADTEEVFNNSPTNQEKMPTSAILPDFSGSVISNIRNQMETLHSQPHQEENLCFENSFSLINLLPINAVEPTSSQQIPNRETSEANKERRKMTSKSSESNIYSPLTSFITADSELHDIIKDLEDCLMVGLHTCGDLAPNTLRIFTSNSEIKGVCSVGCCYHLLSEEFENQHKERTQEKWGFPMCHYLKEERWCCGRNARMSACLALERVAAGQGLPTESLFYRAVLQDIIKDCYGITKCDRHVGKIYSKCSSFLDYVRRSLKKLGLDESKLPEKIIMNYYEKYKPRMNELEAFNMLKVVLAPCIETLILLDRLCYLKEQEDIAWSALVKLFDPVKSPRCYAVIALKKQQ
UniProt O95243: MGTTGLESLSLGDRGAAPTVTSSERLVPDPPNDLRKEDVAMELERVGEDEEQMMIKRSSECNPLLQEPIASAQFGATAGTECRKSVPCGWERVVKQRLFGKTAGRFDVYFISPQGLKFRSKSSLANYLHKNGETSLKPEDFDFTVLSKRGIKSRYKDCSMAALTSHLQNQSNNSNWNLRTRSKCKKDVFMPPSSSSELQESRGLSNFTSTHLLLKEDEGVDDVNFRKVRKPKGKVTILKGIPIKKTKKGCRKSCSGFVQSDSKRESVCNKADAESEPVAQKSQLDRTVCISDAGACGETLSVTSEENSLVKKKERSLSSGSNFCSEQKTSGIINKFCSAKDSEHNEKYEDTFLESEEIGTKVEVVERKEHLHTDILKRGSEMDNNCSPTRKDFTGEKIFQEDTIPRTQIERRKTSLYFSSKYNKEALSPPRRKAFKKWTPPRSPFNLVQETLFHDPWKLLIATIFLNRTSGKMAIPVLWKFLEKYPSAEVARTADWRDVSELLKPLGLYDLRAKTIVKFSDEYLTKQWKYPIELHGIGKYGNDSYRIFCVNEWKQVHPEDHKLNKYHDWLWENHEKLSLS
UniProt Q86XA0: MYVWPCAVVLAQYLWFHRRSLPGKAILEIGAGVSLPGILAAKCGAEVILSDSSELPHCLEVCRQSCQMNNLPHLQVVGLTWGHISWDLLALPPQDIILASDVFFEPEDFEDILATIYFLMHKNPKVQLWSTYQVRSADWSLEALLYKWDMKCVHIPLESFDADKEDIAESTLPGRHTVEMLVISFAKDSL
UniProt Q9Y4C4: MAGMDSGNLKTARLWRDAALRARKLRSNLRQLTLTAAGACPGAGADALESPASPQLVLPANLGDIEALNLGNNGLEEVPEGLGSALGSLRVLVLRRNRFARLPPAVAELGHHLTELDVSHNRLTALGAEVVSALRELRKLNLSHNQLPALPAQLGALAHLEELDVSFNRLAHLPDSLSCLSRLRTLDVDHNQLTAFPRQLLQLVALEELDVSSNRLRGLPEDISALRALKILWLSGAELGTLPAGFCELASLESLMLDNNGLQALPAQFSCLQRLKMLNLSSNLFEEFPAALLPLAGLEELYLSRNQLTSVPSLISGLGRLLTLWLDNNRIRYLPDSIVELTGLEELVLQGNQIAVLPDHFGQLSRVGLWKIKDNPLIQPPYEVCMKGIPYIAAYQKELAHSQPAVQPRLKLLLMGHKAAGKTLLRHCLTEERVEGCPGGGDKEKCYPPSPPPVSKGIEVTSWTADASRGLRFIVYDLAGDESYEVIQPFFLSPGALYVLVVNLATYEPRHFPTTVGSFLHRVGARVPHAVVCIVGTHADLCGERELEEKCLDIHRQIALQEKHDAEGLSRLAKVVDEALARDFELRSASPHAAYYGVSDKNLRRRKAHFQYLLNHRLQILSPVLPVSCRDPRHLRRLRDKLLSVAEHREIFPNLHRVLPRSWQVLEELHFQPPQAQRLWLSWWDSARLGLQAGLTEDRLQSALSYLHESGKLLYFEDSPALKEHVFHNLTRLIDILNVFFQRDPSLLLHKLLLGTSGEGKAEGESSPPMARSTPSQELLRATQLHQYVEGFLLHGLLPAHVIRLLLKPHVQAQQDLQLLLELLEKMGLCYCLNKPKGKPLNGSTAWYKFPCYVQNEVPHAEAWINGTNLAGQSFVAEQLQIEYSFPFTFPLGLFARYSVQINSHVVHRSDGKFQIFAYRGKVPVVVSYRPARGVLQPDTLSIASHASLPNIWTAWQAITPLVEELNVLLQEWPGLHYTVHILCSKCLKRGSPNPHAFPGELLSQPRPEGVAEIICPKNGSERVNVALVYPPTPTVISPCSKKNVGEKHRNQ
UniProt Q9NWA0: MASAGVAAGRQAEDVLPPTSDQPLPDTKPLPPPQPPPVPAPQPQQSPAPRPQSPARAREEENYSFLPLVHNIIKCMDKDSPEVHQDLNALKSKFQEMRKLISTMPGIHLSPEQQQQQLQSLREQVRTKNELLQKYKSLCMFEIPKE
UniProt Q6ZNC8: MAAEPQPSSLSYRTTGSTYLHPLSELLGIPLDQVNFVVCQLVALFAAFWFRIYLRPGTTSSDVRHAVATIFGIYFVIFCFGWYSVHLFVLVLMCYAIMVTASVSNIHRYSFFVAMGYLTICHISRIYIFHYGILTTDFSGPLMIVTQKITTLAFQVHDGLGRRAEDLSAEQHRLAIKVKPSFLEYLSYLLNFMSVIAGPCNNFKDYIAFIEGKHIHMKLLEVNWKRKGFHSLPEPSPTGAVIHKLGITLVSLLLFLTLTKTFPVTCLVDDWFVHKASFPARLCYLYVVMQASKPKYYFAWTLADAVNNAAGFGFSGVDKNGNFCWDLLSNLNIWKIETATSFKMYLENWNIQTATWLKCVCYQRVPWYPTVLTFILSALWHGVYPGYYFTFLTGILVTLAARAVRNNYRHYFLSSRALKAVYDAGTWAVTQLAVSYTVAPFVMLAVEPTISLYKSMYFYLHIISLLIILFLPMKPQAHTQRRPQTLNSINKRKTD
UniProt Q06413, whole entry, looked up: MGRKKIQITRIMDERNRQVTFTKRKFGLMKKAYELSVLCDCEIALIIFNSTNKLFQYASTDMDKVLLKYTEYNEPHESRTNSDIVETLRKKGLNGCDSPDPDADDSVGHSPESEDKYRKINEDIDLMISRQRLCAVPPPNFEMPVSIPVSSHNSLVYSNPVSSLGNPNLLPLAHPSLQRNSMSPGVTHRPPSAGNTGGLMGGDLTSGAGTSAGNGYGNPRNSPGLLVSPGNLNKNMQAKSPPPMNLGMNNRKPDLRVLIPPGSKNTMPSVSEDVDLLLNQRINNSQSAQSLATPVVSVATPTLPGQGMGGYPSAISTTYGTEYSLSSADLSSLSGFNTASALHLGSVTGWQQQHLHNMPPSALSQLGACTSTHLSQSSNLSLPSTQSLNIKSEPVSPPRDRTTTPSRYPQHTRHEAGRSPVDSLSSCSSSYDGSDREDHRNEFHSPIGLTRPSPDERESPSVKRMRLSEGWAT
UniProt A0JLT2: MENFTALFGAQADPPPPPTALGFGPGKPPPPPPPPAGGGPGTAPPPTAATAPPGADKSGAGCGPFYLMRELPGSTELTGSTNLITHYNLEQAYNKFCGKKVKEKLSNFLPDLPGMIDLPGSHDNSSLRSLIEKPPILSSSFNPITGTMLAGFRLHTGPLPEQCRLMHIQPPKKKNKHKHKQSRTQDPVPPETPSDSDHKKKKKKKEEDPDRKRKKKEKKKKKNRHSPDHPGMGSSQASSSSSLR

This is one part of the list.

Compound in the experiment: COc1cc2nc(-c3cc(F)ccc3O)nc(N[C@@H]3CNC[C@H]3C(C)(C)O)c2cc1OC
As to the kind of experiment: log2 fold change, soluble protein after heating vs DMSO (PISA); higher = thermal stabilisation; K562 lysate, 10 uM; active = over 0.2 and 3.5 SD of the protein, either way, in both replicates (recomputed). In short, it runs like this:
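Pellets of K562 cells were dounce-homogenised in PBS pH 7.4 with 1 mM MgCl2, and the crude extract was held at 1 mg/mL protein for a 30 min treatment with 10 μM compound. Aliquots were heated for 3 min over 48°C-58°C and pooled before NP-40 was added to 0.5% at 4°C. The supernatant from 21,000xg for 90 min was quantified by TMTpro 16plex LC-MS/MS with channel sums equalised. Values are reported from duplicates as log-two fold change in thermal stability relative to solvent controls.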
Take MCMBP isoform 2 (UniProt Q9BTE3): the log2 fold change was inactive: -0.091.

MCEMP1 (UniProt Q8IX19): the log2 fold change is inactive: -0.12.

MEN1 (UniProt O00255): the log2 fold change is inactive: -0.103.

For MBLAC1 (UniProt A4D2B0), the log2 fold change is inactive: 0.085.

With MFSD12 isoform 3 (UniProt Q6NUT3), the log2 fold change is inactive: 0.13.

For the target MFSD11 (UniProt O43934), the log2 fold change is inactive: 0.094.

METTL2B (UniProt Q6P1Q9): the log2 fold change is inactive: -0.013.

As for MCFD2 isoform 2 (UniProt Q8NI22), the log2 fold change is inactive: -0.066.

Take MATK isoform 2 (UniProt P42679): the log2 fold change is inactive: 0.004.

As for MCTS2P, A0A3B3IRV3, the log2 fold change is inactive: 0.015.

Regarding METTL25 (UniProt Q8N6Q8), the log2 fold change was inactive: -0.051.

Regarding MBD4 (UniProt O95243), the log2 fold change is inactive: -0.123.

As to METTL23 (UniProt Q86XA0), the log2 fold change is inactive: 0.083.

As for MED6 (UniProt O75586), the log2 fold change was inactive: -0.031.

Take METTL6 (UniProt Q8TCB7): the log2 fold change was inactive: 0.021.

Turning to METTL5 (UniProt H0YFV5), the log2 fold change is inactive: 0.086.

Regarding MFHAS1 (UniProt Q9Y4C4), the log2 fold change is inactive: 0.016.

MED9 (UniProt Q9NWA0): the log2 fold change is inactive: -0.023.

For the target MBOAT1 (UniProt Q6ZNC8), the log2 fold change was inactive: -0.156.

For MEF2C isoform 2 (UniProt Q06413), the log2 fold change was inactive: 0.043.

Take MED19 (UniProt A0JLT2): the log2 fold change is inactive: -0.076.
